{"sequences": {"note": "Sequences of proteins named here, by UniProt entry; tags and fusion partners are left off. Residues count along the entry.", "UniProt P70206, residues 28-1234": "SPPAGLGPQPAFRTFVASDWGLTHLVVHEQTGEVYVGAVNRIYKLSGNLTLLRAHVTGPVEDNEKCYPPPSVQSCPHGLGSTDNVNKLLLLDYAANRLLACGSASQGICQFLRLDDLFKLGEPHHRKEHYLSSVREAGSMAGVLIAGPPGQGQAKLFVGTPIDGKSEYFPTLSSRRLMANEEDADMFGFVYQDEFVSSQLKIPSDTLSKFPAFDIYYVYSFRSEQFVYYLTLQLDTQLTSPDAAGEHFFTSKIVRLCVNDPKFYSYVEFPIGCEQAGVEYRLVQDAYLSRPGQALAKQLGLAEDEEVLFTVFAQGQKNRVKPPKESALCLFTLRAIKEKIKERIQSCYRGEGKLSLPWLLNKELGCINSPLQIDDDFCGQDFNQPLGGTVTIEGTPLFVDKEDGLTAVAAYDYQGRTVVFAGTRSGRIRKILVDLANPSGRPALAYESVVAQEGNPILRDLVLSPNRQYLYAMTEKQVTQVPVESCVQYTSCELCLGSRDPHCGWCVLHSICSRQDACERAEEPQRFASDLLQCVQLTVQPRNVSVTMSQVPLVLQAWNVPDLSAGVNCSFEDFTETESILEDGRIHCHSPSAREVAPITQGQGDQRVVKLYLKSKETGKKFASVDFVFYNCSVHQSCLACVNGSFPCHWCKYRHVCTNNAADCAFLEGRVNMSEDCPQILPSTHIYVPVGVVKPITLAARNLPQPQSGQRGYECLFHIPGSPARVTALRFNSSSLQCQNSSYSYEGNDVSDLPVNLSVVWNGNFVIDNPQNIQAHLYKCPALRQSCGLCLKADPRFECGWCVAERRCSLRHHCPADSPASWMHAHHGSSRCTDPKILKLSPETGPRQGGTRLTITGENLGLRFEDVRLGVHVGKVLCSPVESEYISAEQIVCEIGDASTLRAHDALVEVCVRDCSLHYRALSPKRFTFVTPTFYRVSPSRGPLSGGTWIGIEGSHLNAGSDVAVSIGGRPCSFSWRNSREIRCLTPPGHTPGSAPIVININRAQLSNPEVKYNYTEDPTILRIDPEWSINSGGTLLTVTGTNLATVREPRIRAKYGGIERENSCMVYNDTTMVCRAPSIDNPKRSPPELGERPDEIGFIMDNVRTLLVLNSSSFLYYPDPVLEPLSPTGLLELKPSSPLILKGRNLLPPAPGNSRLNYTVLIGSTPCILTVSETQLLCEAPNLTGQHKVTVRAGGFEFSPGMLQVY"}, "source": "paper PMC4892512", "target": "mouse PlxnA1_(1-10), full-length plexin-A1 ectodomain fragment comprising domains 1 through 10 (mouse) (UniProt P70206)", "assay": "SEC + other: negative-stain electron microscopy; purified PlxnA1_(1-10) on Superdex 200; monodispersed peak fraction negatively stained with uranyl acetate, 2D class averages (30 classes, ~2,200 particles); both purified", "note": "Results are given in words; binding and its absence hold for the method and conditions named.", "data": [{"substance": "mouse PlxnA1_(1-10), full-length plexin-A1 ectodomain fragment comprising domains 1 through 10 (from UniProt P70206 28-1234) (domain or fragment)", "values": [{"measurement": "binding", "value": "no binding"}]}]}
